No constants are given. Whether binding was seen depends on the method and setting. Binding seen in cells or lysates may run through a third protein. Some results given as binding are weak or reduced against the parent protein; the word gives no strength.

The chains behind the UniProt entries cited, without tags or fusion partners.
UniProt P22626: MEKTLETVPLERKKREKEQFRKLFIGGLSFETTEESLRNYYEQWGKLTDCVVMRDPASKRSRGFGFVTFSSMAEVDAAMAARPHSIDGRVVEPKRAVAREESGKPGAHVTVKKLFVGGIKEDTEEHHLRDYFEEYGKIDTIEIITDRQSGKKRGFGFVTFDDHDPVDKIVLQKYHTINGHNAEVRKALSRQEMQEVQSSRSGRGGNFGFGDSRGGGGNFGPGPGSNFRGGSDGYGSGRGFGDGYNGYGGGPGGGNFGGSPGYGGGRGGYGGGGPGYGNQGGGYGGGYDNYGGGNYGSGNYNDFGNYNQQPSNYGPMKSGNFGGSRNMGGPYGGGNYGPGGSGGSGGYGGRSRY
UniProt Q04206: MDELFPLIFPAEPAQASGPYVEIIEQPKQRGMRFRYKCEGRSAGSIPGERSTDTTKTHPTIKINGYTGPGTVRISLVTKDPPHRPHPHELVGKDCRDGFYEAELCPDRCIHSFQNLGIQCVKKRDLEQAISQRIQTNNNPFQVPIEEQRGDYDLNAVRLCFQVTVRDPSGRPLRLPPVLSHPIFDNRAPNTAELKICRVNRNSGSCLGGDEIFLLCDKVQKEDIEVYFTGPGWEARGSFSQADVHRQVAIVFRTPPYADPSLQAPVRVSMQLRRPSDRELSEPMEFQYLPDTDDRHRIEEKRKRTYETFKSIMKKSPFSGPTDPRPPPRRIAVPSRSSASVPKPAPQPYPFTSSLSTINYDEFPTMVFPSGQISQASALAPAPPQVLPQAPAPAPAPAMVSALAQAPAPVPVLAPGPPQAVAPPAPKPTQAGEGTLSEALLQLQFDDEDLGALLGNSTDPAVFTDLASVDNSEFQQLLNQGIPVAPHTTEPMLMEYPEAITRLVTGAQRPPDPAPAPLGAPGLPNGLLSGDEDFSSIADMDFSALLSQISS

The target in the test is heterogeneous nuclear ribonucleoprotein A2/B1 (human (endogenous in Jurkat)) (UniProt P22626). The test can be described thus: co-IP; Jurkat cells lysed in RIPA buffer with protease inhibitors; immunoprecipitated with 2 ug hnRNPA2/B1 antibody (Abcam ab6102) or control rabbit IgG overnight at 4 degrees; protein G beads, washed 4 times with lysis buffer; blotted for p65 and hnRNPA2/B1.

For “NF-kB p65/RelA (from UniProt Q04206 1-551)”, the binding entry is recorded as “binds”.

Source of the values: paper PMC7019344.
